According to the supplement of paper PMC10849652:
Some of the results follow.

Chains of the proteins cited; added tags and fusions are not shown. Lines headed by an entry give the natural chain unless they say otherwise; changes in a name come on top.
UniProt Q8WXD5: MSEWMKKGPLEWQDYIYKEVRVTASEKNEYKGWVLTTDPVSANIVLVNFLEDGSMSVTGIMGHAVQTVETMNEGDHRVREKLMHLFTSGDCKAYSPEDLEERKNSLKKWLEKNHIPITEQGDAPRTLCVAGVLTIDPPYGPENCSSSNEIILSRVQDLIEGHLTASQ
UniProt Q92538, whole entry, looked up: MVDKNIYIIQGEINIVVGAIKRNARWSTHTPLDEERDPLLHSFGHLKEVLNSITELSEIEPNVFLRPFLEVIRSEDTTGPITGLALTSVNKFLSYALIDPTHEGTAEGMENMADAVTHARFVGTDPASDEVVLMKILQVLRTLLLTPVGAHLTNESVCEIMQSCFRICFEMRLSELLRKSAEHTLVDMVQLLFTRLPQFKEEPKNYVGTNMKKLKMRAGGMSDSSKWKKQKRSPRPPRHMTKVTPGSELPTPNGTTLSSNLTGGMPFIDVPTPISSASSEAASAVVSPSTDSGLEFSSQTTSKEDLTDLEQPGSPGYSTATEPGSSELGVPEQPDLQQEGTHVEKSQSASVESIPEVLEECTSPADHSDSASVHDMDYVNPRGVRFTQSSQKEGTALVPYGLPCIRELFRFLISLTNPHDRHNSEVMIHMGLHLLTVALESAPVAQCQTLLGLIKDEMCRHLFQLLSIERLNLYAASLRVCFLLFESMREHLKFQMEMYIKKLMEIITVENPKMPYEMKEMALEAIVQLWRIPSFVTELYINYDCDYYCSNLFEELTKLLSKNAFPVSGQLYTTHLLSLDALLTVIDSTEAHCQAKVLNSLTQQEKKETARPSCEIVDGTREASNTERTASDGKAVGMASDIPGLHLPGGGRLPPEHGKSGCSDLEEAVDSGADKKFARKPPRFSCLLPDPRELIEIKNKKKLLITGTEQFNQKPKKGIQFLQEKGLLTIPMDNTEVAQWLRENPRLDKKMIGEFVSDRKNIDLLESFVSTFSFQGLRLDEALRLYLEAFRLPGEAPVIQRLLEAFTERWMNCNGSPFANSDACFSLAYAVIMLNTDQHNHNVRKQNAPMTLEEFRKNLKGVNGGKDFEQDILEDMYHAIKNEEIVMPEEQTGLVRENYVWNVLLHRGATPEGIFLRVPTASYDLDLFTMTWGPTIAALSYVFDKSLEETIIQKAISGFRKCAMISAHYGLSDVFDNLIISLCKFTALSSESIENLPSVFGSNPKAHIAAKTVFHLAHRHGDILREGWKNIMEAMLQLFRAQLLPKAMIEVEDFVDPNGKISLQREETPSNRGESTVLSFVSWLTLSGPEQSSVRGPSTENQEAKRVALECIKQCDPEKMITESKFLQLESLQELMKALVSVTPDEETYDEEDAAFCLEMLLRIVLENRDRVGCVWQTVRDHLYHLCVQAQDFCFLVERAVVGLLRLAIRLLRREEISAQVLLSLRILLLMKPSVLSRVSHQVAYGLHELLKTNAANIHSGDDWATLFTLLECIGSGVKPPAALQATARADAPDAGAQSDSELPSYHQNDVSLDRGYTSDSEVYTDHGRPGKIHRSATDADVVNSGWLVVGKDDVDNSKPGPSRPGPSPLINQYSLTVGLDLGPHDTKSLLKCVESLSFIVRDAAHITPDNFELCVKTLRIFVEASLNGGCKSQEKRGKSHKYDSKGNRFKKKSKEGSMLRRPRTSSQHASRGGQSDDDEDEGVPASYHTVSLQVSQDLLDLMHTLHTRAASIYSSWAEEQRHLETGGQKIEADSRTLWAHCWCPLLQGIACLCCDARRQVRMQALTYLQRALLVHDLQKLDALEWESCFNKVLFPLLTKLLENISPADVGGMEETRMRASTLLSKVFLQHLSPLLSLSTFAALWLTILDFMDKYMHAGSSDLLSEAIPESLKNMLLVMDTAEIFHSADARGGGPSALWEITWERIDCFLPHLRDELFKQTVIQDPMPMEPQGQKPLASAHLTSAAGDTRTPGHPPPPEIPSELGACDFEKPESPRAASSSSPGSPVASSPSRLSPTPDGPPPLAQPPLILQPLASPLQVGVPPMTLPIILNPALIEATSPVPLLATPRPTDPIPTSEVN
UniProt O75223: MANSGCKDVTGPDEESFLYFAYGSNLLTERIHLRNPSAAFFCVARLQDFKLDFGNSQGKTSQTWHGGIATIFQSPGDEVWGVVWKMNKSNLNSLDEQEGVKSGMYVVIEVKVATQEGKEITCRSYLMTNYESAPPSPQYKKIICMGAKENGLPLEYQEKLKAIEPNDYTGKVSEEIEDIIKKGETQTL
UniProt P23434: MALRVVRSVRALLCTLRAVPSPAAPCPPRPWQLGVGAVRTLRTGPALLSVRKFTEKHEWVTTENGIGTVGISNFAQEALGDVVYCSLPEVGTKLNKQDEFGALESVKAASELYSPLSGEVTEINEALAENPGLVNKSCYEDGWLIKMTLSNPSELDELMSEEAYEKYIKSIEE
UniProt Q9BQS8: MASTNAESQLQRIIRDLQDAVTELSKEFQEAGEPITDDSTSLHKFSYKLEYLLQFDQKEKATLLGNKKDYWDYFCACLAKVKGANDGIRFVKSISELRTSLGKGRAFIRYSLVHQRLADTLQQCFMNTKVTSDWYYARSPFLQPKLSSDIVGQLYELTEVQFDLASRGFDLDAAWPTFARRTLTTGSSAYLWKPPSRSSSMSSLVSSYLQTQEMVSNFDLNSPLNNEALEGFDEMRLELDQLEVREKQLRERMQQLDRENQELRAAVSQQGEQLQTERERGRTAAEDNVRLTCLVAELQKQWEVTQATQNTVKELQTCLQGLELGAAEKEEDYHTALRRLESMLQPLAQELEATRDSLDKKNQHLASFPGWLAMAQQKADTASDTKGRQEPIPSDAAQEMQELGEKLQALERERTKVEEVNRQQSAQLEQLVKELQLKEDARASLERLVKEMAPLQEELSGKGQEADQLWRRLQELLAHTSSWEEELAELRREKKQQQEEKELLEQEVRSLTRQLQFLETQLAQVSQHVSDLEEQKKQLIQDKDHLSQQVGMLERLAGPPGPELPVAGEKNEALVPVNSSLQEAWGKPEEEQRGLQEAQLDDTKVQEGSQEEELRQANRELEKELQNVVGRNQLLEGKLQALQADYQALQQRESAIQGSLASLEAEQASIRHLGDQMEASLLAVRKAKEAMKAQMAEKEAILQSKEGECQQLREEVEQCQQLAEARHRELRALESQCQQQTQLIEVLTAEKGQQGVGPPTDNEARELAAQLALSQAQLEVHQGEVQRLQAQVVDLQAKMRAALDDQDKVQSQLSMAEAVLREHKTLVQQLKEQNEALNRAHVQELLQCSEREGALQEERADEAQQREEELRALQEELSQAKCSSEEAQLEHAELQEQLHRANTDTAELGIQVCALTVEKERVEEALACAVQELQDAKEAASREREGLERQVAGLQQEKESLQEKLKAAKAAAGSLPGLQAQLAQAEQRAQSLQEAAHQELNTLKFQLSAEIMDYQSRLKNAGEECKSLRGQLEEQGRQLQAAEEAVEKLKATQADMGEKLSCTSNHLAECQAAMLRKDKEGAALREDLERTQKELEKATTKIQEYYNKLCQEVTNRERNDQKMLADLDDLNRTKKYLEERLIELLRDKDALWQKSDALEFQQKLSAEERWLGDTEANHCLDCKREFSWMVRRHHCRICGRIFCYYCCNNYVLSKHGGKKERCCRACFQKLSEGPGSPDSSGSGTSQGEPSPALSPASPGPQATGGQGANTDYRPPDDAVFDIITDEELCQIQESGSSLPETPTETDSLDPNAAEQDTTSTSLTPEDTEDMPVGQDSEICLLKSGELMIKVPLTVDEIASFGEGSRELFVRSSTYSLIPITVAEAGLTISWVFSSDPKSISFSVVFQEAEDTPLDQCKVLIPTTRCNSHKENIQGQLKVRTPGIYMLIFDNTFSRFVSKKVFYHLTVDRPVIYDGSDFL
UniProt P04066: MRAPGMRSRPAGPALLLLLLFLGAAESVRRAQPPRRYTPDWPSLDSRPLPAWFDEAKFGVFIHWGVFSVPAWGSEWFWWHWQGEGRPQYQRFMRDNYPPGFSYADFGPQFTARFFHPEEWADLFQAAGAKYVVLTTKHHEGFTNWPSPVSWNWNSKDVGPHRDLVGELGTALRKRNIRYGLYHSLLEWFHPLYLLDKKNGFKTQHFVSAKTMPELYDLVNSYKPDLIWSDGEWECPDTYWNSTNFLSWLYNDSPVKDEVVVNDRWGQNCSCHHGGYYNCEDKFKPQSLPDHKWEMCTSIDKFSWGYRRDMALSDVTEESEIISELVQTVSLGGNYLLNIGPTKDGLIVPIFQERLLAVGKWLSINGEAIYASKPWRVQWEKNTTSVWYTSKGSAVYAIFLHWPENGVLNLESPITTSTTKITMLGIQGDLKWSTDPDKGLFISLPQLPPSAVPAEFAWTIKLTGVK
UniProt O75600: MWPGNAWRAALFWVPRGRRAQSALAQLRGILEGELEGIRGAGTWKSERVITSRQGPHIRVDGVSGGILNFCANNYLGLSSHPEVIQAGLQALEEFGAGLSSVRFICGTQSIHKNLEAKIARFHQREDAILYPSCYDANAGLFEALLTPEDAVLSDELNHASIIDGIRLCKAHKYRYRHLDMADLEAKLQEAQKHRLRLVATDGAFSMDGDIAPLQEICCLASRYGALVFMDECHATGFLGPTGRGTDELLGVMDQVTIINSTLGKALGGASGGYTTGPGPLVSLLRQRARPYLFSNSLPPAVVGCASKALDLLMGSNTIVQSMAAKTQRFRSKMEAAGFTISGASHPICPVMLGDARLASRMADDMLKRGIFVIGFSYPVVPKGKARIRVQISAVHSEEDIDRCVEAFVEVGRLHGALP
UniProt P50395: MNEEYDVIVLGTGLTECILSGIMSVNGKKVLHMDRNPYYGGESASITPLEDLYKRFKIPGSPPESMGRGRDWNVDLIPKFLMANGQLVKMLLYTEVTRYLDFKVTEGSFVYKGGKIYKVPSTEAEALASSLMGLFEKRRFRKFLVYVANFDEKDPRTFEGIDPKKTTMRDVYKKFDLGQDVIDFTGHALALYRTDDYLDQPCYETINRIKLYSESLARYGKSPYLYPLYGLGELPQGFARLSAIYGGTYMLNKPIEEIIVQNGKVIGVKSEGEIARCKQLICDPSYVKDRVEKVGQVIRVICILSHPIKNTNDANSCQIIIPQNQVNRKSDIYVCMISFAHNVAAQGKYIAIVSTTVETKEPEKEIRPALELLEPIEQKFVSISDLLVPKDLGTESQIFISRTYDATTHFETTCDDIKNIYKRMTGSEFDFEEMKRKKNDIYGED
UniProt Q9UJ14: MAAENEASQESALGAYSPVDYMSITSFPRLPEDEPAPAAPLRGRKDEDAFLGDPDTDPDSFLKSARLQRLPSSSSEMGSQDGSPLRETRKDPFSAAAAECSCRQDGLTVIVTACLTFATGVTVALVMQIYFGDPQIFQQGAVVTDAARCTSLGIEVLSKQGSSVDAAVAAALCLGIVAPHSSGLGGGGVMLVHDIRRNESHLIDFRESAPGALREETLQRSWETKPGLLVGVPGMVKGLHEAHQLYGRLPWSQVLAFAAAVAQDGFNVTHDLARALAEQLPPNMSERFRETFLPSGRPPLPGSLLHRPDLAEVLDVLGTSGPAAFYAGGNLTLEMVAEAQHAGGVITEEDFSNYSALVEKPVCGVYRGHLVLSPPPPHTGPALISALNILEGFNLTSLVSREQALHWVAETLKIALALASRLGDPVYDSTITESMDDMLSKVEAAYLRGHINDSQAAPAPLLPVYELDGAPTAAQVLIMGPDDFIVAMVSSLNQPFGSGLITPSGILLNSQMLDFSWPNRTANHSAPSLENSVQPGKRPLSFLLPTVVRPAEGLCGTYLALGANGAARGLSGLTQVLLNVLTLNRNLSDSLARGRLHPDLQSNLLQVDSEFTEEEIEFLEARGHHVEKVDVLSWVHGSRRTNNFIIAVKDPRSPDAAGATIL
UniProt Q9H3K2: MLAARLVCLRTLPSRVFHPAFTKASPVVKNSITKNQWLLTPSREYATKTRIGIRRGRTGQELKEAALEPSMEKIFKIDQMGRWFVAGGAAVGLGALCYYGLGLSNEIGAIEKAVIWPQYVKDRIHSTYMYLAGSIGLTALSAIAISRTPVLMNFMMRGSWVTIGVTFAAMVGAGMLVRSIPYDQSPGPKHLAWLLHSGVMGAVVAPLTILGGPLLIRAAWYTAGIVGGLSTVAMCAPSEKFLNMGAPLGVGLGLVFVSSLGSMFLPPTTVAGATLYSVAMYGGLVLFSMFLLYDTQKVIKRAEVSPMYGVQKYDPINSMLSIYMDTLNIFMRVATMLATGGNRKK
UniProt Q8TB36: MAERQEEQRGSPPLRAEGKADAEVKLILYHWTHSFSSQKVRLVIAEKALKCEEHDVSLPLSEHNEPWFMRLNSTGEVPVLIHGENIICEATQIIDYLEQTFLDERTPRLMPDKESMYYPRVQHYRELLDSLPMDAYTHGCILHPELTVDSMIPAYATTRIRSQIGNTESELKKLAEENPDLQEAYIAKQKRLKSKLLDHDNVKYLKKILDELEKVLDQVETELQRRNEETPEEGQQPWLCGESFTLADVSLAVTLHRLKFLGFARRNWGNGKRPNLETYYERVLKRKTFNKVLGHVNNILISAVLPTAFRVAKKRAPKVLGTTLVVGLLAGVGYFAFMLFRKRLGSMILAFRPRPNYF

Compound: C1=CC2=C(C=CC(=C2)/C=C\3/C(=O)NC(=NCC4=CC=CS4)S3)N=C1
Experiment: log2 fold change, soluble protein after heating vs DMSO (PISA); higher = thermal stabilisation; K562 cells, 10 uM, 30 min; active = over 0.2 and 3.5 SD of the protein, either way, in both replicates (recomputed)
In short: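 K562 cells at 2×10^6 cells/mL were treated for 30 min with 10 μM compound, and aliquots were heated for 3 min over 48°C-58°C before pooling. Extraction used PBS with 0.5% NP-40 at 4°C, and soluble protein was the supernatant after 21,000xg for 90 min, measured by TMTpro 16plex LC-MS/MS with channel sums equalised. Thermal stability values, relative to control samples and from duplicates, are log2 fold changes.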

log2 fold change, inactive:
GALNT7 (UniProt Q86SF2) 0
GEMIN6 (UniProt Q8WXD5) -0.022
GBF1 (UniProt Q92538) 0.075
GCHFR (UniProt P30047) -0.055
GARS1 (UniProt P41250) -0.001
GDE1 (UniProt Q9NZC3) -0.047
GALNT6 (UniProt Q8NCL4) 0.114
GGCT (UniProt O75223) 0.016
FSCN1 (UniProt Q16658) -0.058
GCSH (UniProt P23434) -0.036
G6PD isoform 2 (UniProt P11413) 0.004
FYCO1 isoform 4 (UniProt Q9BQS8) 0
FOXJ3 (UniProt Q9UPW0) -0.011
GAR1 (UniProt Q9NY12) -0.056
FUCA1 (UniProt P04066) 0.031
GATD1 (UniProt Q8NB37) 0.057
GAMT (UniProt Q14353) 0
GCAT isoform 2 (UniProt O75600) 0.051
FRYL (UniProt O94915) 0.018
GGT2 isoform 3 (UniProt P36268) -0.015
FUT8 (UniProt Q9BYC5) -0.145
GDI2 (UniProt P50395) -0.029
FXR2 (UniProt P51116) 0.185
GGA1 isoform 6 (UniProt Q9UJY5) -0.007
GDPD1 (UniProt Q8N9F7) -0.015
FOXRED1 (UniProt Q96CU9) 0.032
FUBP3 (UniProt Q96I24) -0.014
GGT7 (UniProt Q9UJ14) -0.001
GHITM (UniProt Q9H3K2) -0.006
GFER (UniProt P55789) -0.133
GADD45GIP1 (UniProt Q8TAE8) -0.066
GDAP1 (UniProt Q8TB36) -0.065

For reference, part of the list above.
log2 fold change, inactive:
FOXRED1 (UniProt Q96CU9) 0.032
FUBP3 (UniProt Q96I24) -0.014
GGT7 (UniProt Q9UJ14) -0.001
